Measured values taken from PubChem BioAssay AID758 (NMMLSC, 2007).
Hit rate of the full screen: of about 190,000 compounds, about 110 (0.058%) were called active. The inconclusive results got no clear call from the source; some entries with a clear call stand among them for comparison.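 How the source made its calls: active means fluorescent GTP binding to Rab7 beads changed by at least 20 points from the 100% baseline, either direction, mostly lower; inconclusive means compound itself probably fluorescent, or too few beads counted; inactive means the rest.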

system: Rab7 GTPase wild type (dog), Bodipy-FL-GTP binding; assay: modulators of GTP binding to Rab7, primary screen, biochemical, wildtype, multiplex bead flow cytometry (AID 758); details: GST-Rab7 beads, fluorescent GTP binding, at 10 µM, actives lie on both sides, untreated = 100%, excess cold GTP = 0%;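 further: median green fluorescence of bound Bodipy-FL-GTP per Rab7 bead population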

SMILES | GTP binding activity (percent of control)
O=C(O)c1cn(Cc2ccccc2Cl)c2ccc(S(=O)(=O)N3CCOCC3)cc2c1=O | inconclusive: 94%
O=C(NC(NCc1ccccn1)(C(F)(F)F)C(F)(F)F)c1ccco1 | inconclusive: 102%
CCCN1C(=O)/C(=C\C=C2/Sc3ccccc3N2CC)SC1=S | active: 77%
CCOc1ccc(-n2c(SCC(=O)Nc3ccc(OC)cc3OC)nc3c(c2=O)SCC3)cc1 | inconclusive: 96%
Cc1cc(NC(=O)CSc2nnc(-c3cccnc3)n2Cc2ccccc2)no1 | inconclusive: 100%
NS(=O)(=O)c1ccc(NC(=O)N[C@@H](Cc2ccccc2)C(=O)O)cc1 | inconclusive: 94%
COc1ccc(/C=N/Nc2nnc(Cc3ccc(OC)c(OC)c3)c(=O)[nH]2)cc1OC | inconclusive: 90%
C=CCn1c(COc2ccc(F)cc2)nnc1SCC(=O)c1c[nH]c2c(CC)cccc12 | inconclusive: 46%
O=C(N/C=C/c1ccccc1)Nc1ccc(Cl)cc1 | inconclusive: 94%
O=C(CCn1cnc2ccccc2c1=O)Nc1cccc(Cl)c1Cl | inconclusive: 97%
C=CCc1c(OC)ccc2ccc(=O)oc12 | inactive: 99%
CCNC(=S)N(Cc1cccs1)Cc1cc2cc(OCC)ccc2[nH]c1=O | inconclusive: 187%
CCN(CC(=O)NC(C)C)C(=O)C(CCSC)NC(=O)c1cccc(C)c1 (stereo not drawn) | inactive: 99%
Cn1c(CCNC(=O)c2ccc(Cl)c(Cl)c2)nnc1SCc1ccc(Cl)c(Cl)c1 | inconclusive: 94%
CCN(CC)CCCNc1ncnc2ccccc12 | inconclusive: 98%
CCCC(=O)NCn1nnc(-c2ccc(Cl)cc2)n1 | inconclusive: 255%
Cc1nnc(NC(=O)c2ccccc2F)s1 | inconclusive: 95%
Cc1ccc2c(c1)NC(=O)C(CC(=O)NCCN(C)C)O2 (stereo not drawn) | inconclusive: 105%
N#CC(C#N)=C1C=C2C=C(N3CCCCCC3)CCC2CC1 (stereo not drawn) | inconclusive: 120%
O=C(Nc1nnc(CC(=O)N2CCOCC2)s1)C1COc2ccccc2O1 (stereo not drawn) | inconclusive: 101%

SMILES | GTP binding activity (percent of control)
COc1ccc(-c2nsc(SCC(=O)NCC3CCCO3)n2)cc1 (stereo not drawn) | inactive: 97%
O=C(N/N=C/c1ccccc1)c1ccc(OCc2ccccc2)cc1 | inactive: 95%
Cn1nnc2cc(NC(=O)N3CC4(C)CC3CC(C)(C)C4)ccc21 (stereo not drawn) | inconclusive: 101%
CCOC(=O)c1c(C)oc(NC(=O)COc2ccc(Cl)cc2C)c1C#N | inactive: 94%
Cn1c(=O)c2c(nc(N3CCCCCC3)n2CC(=O)c2ccc(Br)cc2)n(C)c1=O | inconclusive: 102%
COc1ccc2[nH]c3c(=O)n4c(nc3c2c1)SCCC4 | inconclusive: 99%
Cc1ccc(/C=N/n2c(COc3ccccc3)n[nH]c2=S)o1 | inconclusive: 94%
Cc1nnsc1C(=O)NNS(=O)(=O)c1ccccc1 | inconclusive: 102%
Fc1ccc(NC(=S)N2CCc3ccccc3C2)c(F)c1 | inactive: 96%
CCOC(=O)N1CCN(C(=O)CSc2ccc3nnc(-c4cccnc4)n3n2)CC1 | inactive: 99%
Cc1ccc(C(=O)N/N=C(/CC(=O)c2cccs2)C(F)(F)F)cc1 | inconclusive: 91%
CCOC(=O)Cn1c(-c2ccccn2)nc2ccccc21 | inconclusive: 95%
Cc1cc(=O)n2nc(N3CCCC(C(=O)N4CCN(c5ccccc5)CC4)C3)sc2n1 (stereo not drawn) | inconclusive: 105%
O=C(O)C1CCCCC1C(=O)NCc1ccc(Cl)c(Cl)c1 (stereo not drawn) | inconclusive: 92%
CC(=O)NC(=S)Nc1ccccc1F | inconclusive: 97%
COc1ccccc1C(=O)N(CN1CCCC1=O)c1cccc(Cl)c1 | inconclusive: 101%
Fc1cc(F)c2nc(Nc3nc4cc5c(cc4s3)OCO5)sc2c1 | inconclusive: 93%
Cc1ccc(NC(=O)CSC2=C(C#N)C(c3ccc4c(c3)OCO4)C3=C(CCCC3=O)N2)c(C)c1 (stereo not drawn) | inactive: 91%
O=C(c1cccc(C(=O)N2CCN(c3ncccn3)CC2)c1)N1CCN(c2ncccn2)CC1 | inconclusive: 110%
O=C(COC(=O)/C=C/c1ccc2c(c1)OCO2)Nc1ccc(S(=O)(=O)N2CCCC2)cc1 | inconclusive: 94%

SMILES | GTP binding activity (percent of control)
Brc1ccc(CSc2ccc3nnc(-c4cccnc4)n3n2)cc1 | inconclusive: 92%
CCOC(=O)C(NC(=O)c1ccccc1)=C1C=C(C)OC(C)=C1 | inconclusive: 92%
Nc1ccc(C(=O)N/N=C\c2cc(N=Nc3cccc4ccccc34)ccc2O)cc1 | inconclusive: 85%
O=C(NCCO)c1ccc2nc(-c3ccco3)c(-c3ccco3)nc2c1 | inconclusive: 91%
COc1cccc(CN2CCN(Cc3cc(OC)c(OC)cc3[N+](=O)[O-])CC2)c1 | inconclusive: 94%
Cc1sc2ncn(CC(=O)N3CCOCC3)c(=O)c2c1-c1ccccc1 | inactive: 95%
Cc1cccc(NC(=O)CN(C)S(=O)(=O)c2ccccc2)n1 | inconclusive: 104%
C/C(=N\NC(=O)c1cccnc1)c1cc2ccccc2o1 | inconclusive: 97%
Cc1ccc(SCc2ccc(C(=O)Nc3ccccc3Br)cc2)cc1 | inconclusive: 98%
O=C(CSc1nnc(-c2ccc(F)cc2)o1)NC1CCCCC1 | inconclusive: 118%
CC(=O)N1CCN(CC(=O)Nc2sccc2C#N)CC1 | inconclusive: 95%
Cc1ccccc1Sc1c(C#N)c(-c2ccccc2)nn1C | inactive: 101%
Cc1c(NC(=O)/C(C#N)=C/c2ccc(-c3cccc(Cl)c3)o2)c(=O)n(-c2ccccc2)n1C | inconclusive: 95%
CCC(/C=C1\Sc2ccc(OC)cc2N1CC)=C\c1sc2ccc(OC)cc2[n+]1CCCS(=O)(=O)[O-] | inactive: 95%
O=C1c2cccc3cccc(c23)C(=O)N1CCN1CCN(C(=S)Nc2ccccc2)CC1 | inconclusive: 96%
COc1cccc(CNC(=O)C2CCN(S(=O)(=O)c3cccs3)CC2)c1 | inconclusive: 92%
CC(=O)N[C@@H](Cc1c[nH]c2ccccc12)C(=O)OCC(=O)Nc1ccc(Cl)c(S(=O)(=O)N(C)C)c1 | inconclusive: 96%
COCCNC(=O)CN(c1ccc(OC)c(OC)c1)S(=O)(=O)c1ccc(C)cc1 | inconclusive: 98%
